Common to all, as to assay: NP40-soluble protein abundance relative to vehicle (solubility fold change) (ratio); higher = more soluble protein in presence of AMP-PNP
In experiment [1] the target is T1, UniProt Q5JRX3 and related entries.
T1 sequence (whole entry): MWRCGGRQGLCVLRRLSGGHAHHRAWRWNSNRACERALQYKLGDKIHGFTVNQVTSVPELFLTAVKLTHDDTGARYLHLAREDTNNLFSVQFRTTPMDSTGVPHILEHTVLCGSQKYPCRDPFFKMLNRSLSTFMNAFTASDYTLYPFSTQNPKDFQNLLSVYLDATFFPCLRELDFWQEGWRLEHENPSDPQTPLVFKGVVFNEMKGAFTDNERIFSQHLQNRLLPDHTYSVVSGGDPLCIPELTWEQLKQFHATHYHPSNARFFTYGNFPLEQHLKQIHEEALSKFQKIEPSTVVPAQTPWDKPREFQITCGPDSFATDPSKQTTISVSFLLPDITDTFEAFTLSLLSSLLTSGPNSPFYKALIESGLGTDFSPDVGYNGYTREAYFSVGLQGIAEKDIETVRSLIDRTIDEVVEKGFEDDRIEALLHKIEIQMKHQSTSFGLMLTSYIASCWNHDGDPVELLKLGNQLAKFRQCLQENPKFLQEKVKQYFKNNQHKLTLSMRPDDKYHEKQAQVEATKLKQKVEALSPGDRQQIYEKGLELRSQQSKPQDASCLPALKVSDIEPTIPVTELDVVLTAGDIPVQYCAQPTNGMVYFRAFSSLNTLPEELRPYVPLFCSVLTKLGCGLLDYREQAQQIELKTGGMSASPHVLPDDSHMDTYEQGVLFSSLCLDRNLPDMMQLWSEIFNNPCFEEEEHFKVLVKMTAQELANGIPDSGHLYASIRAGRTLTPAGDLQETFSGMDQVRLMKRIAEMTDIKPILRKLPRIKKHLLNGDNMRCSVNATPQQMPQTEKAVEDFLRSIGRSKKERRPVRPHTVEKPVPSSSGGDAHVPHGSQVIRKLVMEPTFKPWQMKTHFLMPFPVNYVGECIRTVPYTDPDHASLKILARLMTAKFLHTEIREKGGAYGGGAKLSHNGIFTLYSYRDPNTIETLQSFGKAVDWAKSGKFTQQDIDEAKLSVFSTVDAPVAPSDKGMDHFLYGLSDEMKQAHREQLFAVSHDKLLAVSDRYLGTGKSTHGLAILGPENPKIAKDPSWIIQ
Put shortly: (§1)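 In three independent experiments, Jurkat crude lysate made by Dounce homogenisation was treated for 10 min at room temperature and then 3 min at 37 °C with eight concentrations ranging from 0.1 to 10 mM. It was then solubilised with 0.8% NP40 plus benzonase for 60 min at 4 °C and ultracentrifuged. The supernatant was TMT-labelled for LC-MS/MS, and each value is the fold change against the detergent-processed vehicle for the same replicate, using vsn-normalised intensities.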

In experiment [2] the target is T2, UniProt Q5SGD2 and related entries.
T2 sequence (whole entry): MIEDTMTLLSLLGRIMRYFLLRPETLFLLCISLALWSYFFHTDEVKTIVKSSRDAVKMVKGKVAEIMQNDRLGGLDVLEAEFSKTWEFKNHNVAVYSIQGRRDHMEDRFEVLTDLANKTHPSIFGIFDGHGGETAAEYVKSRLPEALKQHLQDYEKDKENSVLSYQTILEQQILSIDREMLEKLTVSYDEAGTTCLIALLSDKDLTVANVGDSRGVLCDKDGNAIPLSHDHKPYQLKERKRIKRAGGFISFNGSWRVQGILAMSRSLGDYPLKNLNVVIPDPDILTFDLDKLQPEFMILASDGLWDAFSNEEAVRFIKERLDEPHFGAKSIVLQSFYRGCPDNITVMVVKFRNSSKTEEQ
Put shortly: as §1

In experiment [3] the target is T3, UniProt Q5T1V6 and related entries.
T3 sequence (whole entry): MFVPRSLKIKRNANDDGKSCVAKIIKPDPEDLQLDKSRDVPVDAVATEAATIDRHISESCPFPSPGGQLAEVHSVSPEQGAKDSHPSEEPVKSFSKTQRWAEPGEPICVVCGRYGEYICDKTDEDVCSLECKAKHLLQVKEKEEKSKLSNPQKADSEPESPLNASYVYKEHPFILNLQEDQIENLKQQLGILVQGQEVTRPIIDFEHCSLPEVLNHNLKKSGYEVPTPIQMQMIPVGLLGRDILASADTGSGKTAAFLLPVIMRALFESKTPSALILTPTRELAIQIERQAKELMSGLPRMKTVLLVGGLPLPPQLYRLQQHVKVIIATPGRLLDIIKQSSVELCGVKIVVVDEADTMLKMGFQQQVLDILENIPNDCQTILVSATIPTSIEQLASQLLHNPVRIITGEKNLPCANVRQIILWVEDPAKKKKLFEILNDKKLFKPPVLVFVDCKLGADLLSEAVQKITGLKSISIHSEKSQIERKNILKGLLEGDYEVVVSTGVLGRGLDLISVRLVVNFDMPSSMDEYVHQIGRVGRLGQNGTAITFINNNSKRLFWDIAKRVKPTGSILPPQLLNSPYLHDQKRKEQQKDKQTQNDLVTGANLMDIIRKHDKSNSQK
In a few lines: as §1

For another experiment, the target named is T4, ZYX (UniProt Q15942).
T4 sequence (whole entry): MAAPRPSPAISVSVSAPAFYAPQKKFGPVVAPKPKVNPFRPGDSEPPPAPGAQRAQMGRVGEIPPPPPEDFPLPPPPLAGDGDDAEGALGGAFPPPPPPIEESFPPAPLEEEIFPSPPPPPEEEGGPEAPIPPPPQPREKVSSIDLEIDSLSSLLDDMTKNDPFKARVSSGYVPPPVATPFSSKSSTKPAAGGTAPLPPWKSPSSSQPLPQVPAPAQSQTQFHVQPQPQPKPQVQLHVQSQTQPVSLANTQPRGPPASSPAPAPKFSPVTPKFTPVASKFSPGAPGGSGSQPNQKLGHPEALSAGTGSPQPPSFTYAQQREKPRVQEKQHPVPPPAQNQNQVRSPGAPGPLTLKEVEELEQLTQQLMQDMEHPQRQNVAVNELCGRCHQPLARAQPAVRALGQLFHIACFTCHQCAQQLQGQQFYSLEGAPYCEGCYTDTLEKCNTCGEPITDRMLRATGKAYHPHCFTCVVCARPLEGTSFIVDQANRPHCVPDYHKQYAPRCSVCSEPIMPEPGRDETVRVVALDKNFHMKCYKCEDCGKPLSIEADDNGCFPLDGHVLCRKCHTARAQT
Put shortly:
as §1

± gives the standard deviation of the averaged measurements. Only a part is listed here, and it is no random draw.

With `Nc1ncnc2c1ncn2[C@@H]1O[C@H](COP(=O)(O)OP(=O)(O)NP(=O)(O)O)[C@@H](O)[C@H]1O` [adenylyl imidodiphosphate], the NP40-soluble protein abundance in experiment [1] (concentration: 1mM) was 0.993 ± 0.013; in experiment [1] (concentration: 2mM), 0.957 ± 0.058; in experiment [1] (concentration: 4mM) it was 0.994 ± 0.014; in experiment [1] (concentration: 6mM), 0.983 ± 0.026; in experiment [1] (concentration: 8mM) it was 0.985 ± 0.024; in experiment [1] (concentration: 10mM) it was 0.966 ± 0.02. The NP40-soluble protein abundance was found to be 1.02 ± 0.029 in experiment [2] (concentration: 1mM); 1.03 ± 0.049 in experiment [2] (concentration: 2mM); 1 ± 0.019 in experiment [2] (concentration: 4mM); 1 ± 0.016 in experiment [2] (concentration: 6mM); 1.02 ± 0.06 in experiment [2] (concentration: 8mM); 1.006 ± 0.0075 in experiment [2] (concentration: 10mM). Further, the NP40-soluble protein abundance stood at 1.03 ± 0.03 in experiment [3] (concentration: 1mM); 0.999 ± 0.021 in experiment [3] (concentration: 2mM); 1.02 ± 0.023 in experiment [3] (concentration: 4mM); 0.99 ± 0.019 in experiment [3] (concentration: 6mM); 1.01 ± 0.016 in experiment [3] (concentration: 8mM); 0.985 ± 0.021 in experiment [3] (concentration: 10mM). In addition, the NP40-soluble protein abundance with ZYX (concentration: 1mM) is 1.03 ± 0.031; with ZYX (concentration: 2mM), 1.06 ± 0.034; with ZYX (concentration: 4mM) it was 1.01 ± 0.059; in the experiment with ZYX (concentration: 6mM) it was 0.99 ± 0.025; in the experiment with ZYX (concentration: 8mM) it was 0.981 ± 0.047; with ZYX (concentration: 10mM), 0.969 ± 0.058.

Values taken from the supplement of paper PMC6411743.
